From PubChem BioAssay AID1508600 (Functional Genomics Laboratory (NCATS/FGL), 2020)
Among all 53,000 sequences or so, about 3,700 (7%) were called active.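 How the source made its calls: active means gene knockdowns whose robust z-score for IL-1 alpha signal is at least 2 or at most -2, so actives lie on both sides; inactive means the rest.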 The list shows a part of the results.

Test: Components of the Cytosolic LPS Sensing Pathway: Gene Identification via Genome-wide siRNA Screen;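 further: robust z of the log signal after scaling to non-targeting control siRNA wells of the plate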
Conditions: RAW264.7 macrophages, IL-1a HTRF, actives lie on both sides, screened at 100 nM (by protocol), cells primed 5 h with Pam3CSK4 first
How it was run: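 Three distinct siRNAs per gene were tested singly at 100 nM in RAW264.7 macrophages. Following Pam3CSK4 priming and 24 hour LipidA transfection, IL-1a secretion was read by HTRF.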

| Sequence | z-score |
| --- | --- |
| GGAGGUUAUGUUUAAAACUTT against Dync1h1 | inactive: -0.649 |
| GGGCCUUCAAAACGAGAAGTT against Cyp4f39 | inactive: 0.339 |
| GCUUUGUUUGAAAAUGCGATT against Nrde2 | inactive: -0.66 |
| CGGACGACUCCCUUAUUCATT against Adrm1 | inactive: -1.29 |
| GGACGUGCAGGAAAUGCAUTT against Alas1 | inactive: -0.049 |
| GCAGUUCUGAAUCAUUAAGTT against Pot1a | inactive: -1.39 |
| GCCUAACAUCUGUCCCUAUTT against Tmem106c | inactive: 0.0058 |
| GGAAUCCUUUUGGAUAACATT against Dock4 | inactive: -0.54 |
| CGUCUGAUCUAGAUGACUCTT against Msantd4 | inactive: 0.319 |
| GCAGAUGAUACGCAUGCAGTT against Ccdc91 | inactive: -0.65 |
| GCUAUGACAGUUAUGCUACTT against Cirbp | inactive: 0.874 |
| CGGGUUUUUCCAGUAGAUUTT against Ebag9 | inactive: 0.0321 |
| GGUUCAGACAAGCAUCUAGTT against Sbp | inactive: -1.04 |
| GGAGGCAAAAAUGAUGCUATT against Slpi | inactive: 1.97 |
| GGAACAGAGAGUGGAGCUUTT against Rnd1 | inactive: 0.787 |
| GGCCGUACAUCAACAUUACTT against C1qtnf6 | inactive: 0.115 |
| GCUAGCUAGAACAAGUAAATT against Slmap | inactive: -1.72 |
| GCAACGUGGUCUAUGAAUUTT against Disp2 | inactive: -0.694 |
| GCUAAUUCUCAGAACUCUATT against Tas2r130 | inactive: -0.5 |
| GGUAAUAGAGGAGAAGAAUTT against Phc1 | inactive: 0.266 |
| GGAAUCAUUGACGUAAUCATT against Chil3 | inactive: 1.99 |
| GGAGUCUUAUGUCUUGGAUTT against Aldh1b1 | inactive: -0.443 |
| GGGAAAAAACCCUGUUCUUTT against Zfp11 | inactive: 0.703 |

| Sequence | z-score |
| --- | --- |
| GGAAAAACAUGCCAAAAAATT against Mettl15 | inactive: -0.222 |
| GGGACUCCCAAACAACAAATT against Lair1 | inactive: 0.185 |
| GCUGACAGACUUAUUACUUTT against Cul4b | inactive: 0.201 |
| CGGAACAGACCAUCUCACUTT against Plec | inactive: 0.0343 |
| AUGAAAGCAUUCUAAGAAGTT against LOC434320 | inactive: -0.22 |
| GGAGAUCAUCAACAUCGCCTT against Nptx2 | inactive: 0.22 |
| GGGACGAUUACCCUUAUUGTT against 1700084J12Rik | inactive: 0.709 |
| GGUGGACAAGGCAAUACAGTT against Mmp20 | active: 4.46 |
| GGAAGUAGAAGUGAGUGAATT against Zcrb1 | inactive: -0.6 |
| GGAGAAUCCUCAUUGACACTT against Lactb2 | inactive: -1.71 |
| GGAGACCUUCAAAAAGGUGTT against Tmprss4 | inactive: -1.06 |
| GGAUCAUUUCUGGCAAGAGTT against Irf7 | inactive: -0.379 |
| GGCGAAAAAUACAAAUUCCTT against Vamp1 | inactive: 0.927 |
| GCGUGCGGAUAACAAAAGCTT against D11Wsu47e | inactive: 0.342 |
| GGGUGAGAUAAUUGAAAAGTT against Slc12a6 | inactive: 0.607 |
| CCGCGUCUUGCUAUGGAAGTT against Baiap2l2 | inactive: 0.79 |
| GGAUUGAGCUACAAGAAUATT against Cgas | inactive: -0.103 |
| GGGAGGAAUUUGAUAAGAUTT against Nudt21 | inactive: -0.924 |
| CGAUUUGCCCAAUAAAGAATT against Scn9a | inactive: 0.223 |
| GCGGUUUCGAACAAUCACGTT against Rab8a | active: -2.4 |
| GGAUUUUCAAUUCAUACCCTT against Psmb1 | inactive: -0.189 |
| CCUAACUCACAACAAUUACTT against Olfr304 | inactive: -0.496 |
| GGAGUUGCCAUGCUCAACATT against Olfr808 | inactive: 0.193 |

Already shown: entries from further up.

| Sequence | z-score |
| --- | --- |
| GCGUGCGGAUAACAAAAGCTT against D11Wsu47e | inactive: 0.342 |
| GGGUGAGAUAAUUGAAAAGTT against Slc12a6 | inactive: 0.607 |

Quoted from the listing.
z-score, GGGCCUUCAAAACGAGAAGTT against Cyp4f39 reads inactive: 0.339
z-score, GGAAUCCUUUUGGAUAACATT against Dock4 reads inactive: -0.54

Next part

| Sequence | z-score |
| --- | --- |
| GUUACCUCAGUGUUAUACUTT against Olfr45 | inactive: 1.7 |
| GGACUUCAAGGACUUCUACTT against Crtap | inactive: 0.112 |
| GCUAUUAGAGAGGACUAAGTT against Ccdc9b | inactive: 0.201 |
| GGAAAUGACUCAUUUACAGTT against Smc1a | inactive: -1.81 |
| GGGACUUAUGUACAACUUCTT against Idua | inactive: 1.53 |
| GGCUGCUCAUAUUGGUCAATT against Sphk2 | inactive: 0.826 |
| GGCUCUGCUGGAUAUCAUGTT against Med24 | inactive: -1.08 |
| GGUACAGUGCAUCGACAUGTT against Eng | inactive: 0.879 |
| GGAGAUGAUUAAGUCUGGATT against Pkm | inactive: -0.308 |
| GGAUUACCCAUUUGUUCCUTT against Adam4 | inactive: 1.38 |
| GGAUGUGGUUUUCACUGACTT against Cat | inactive: -0.325 |
| GGAGUGUUUUGCAGUUUUATT against Dcstamp | active: 4.39 |
| GGUUAGGUUGAUGAAUAAGTT against Eif4ebp2 | active: 2.46 |
| GGAAAAAAAACACUGACUGTT against Hoxa5 | inactive: 1.05 |
| GGACACUGUCCAGAAGUUGTT against Rmnd5a | inactive: -0.212 |
| GGAAGAAUGUAGGAGGAAGTT against Sln | inactive: 0.246 |
| CCUAUUACCAGUCUUAUGATT against Zfp458 | inactive: -0.279 |
| GGAAUCUUUAUGUCGGCACTT against Tgfbrap1 | inactive: -0.802 |
| CCACAGAUUACAUUUAUCCTT against Sephs1 | inactive: -1.19 |
| GCGCAACUGAAAUAAAUGATT against Hoxc9 | inactive: 0.763 |
| GGAGAGGUAGACUUCCUGUTT against Fam83a | inactive: 0.552 |
| GCUACCAUCGGUUUUCCGATT against Cdc6 | inactive: 1.13 |
